Experimental data reported in publication PMC5036795.
These are yes or no findings as the source states them, for the method shown. Binding seen in cells or lysates may run through a third protein. Here binding means that the protein was enriched with, or labelled near, the bait; the list need not be complete.

Sequences of proteins named here, by UniProt entry; tags and fusion partners are left off. A change or cut given only in a name is not applied to a line headed by its entry.
UniProt Q7AKP9: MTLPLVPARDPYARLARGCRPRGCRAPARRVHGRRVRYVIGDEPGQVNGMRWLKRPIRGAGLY

B1: ribosomal protein S2 (RpsB), product of SCO5624 (protein, UniProt O31212 1-310)
chain: MAVVTMRELLESGVHFGHQTRRWNPKMKRFIFTERNGIYIIDLLQSLSYIDRAYEFVKETVAHGGTVMFVGTKKQAQEAIAEQATRVGMPYVNQRWLGGMLTNFSTVYKRLQRLKELEQIDFEDVAASGLTKKELLVLSREKAKLEKTLGGIREMSKVPSAVWIVDTKKEHIAVGEARKLNIPVVAILDTNCDPDEVDHKIPGNDDAIRSVTLLTRVIADAVAEGLIARSGAAGGAKGDKAAGEPLAAWERDLLEGEKAEKKDDAEAAEKPAEAPAAEAPAAEAAEAPAAEAAPAEEPAAEAPAADAEQA
B2: putative leucyl aminopeptidase (PepA), product of SCO2179 (enzyme, UniProt Q9S2Q7 1-517)
chain: MTALTLSTAAAPGLRADAIVIGVAKGAGGPSVAPGAEAVDKAYDGRLAAVLETLGASGAEGEVTKLPAPSGFKAPVVVAVGLGAEPEKDAGFDPEALRRAAGAAARALAGAKKAAFALPLAEAADAGVVAEGLLLGAYSFDAYKASAKEAKEAKGAKAKANGNGKAPLAEAALLGGKPRDKAYKAAIERATAVAEELNRARDLVNTPPNDLDPEAFAAVAQAAAKEHGIKVQVLDEKALVKGGYGGILGVGAGSASGPRLVKLSYTSPKAKKSLAFVGKGITYDSGGISLKPAGHNETMKCDMAGAAAVFAAVVAAARLGLEVNVTGWLALAENMPSGSATRPGDVLRMYSGKTVEVLNTDAEGRLVLADALWAASQDEPDAIIDVATLTGAMMLALGSRTYGIMANDDAFRSAVHEAAEESGEPAWPMPLPEHLRKGMDSPTADIANMGERMGGGLVAGLFLREFVGEGITWAHLDIAGPAFNEGGPFGYTPKGGTGTAVRTLVRVAELAAAGELG

Each molecule was assayed against TrpM-His6 (SCO2038 product, His-tagged TrpM) (Streptomyces coelicolor A3(2)) (UniProt Q7AKP9) (assay: affinity purification with mass spectrometry; His-tag pull-down: TrpM-His6 immobilised on cobalt-containing Dynabeads as bait; prey: S. coelicolor A3(2) protein extract (3 days on MM) pre-cleared on Dynabeads alone; eluate on 15% SDS-PAGE, silver staining; bands present only with the bait identified by nanoLC-ESI-LIT-MS/MS; control: extract of E. coli with non-recombinant pRSETB; only the target purified).

| binding | Molecule |
| --- | --- |
| binds | ribosomal protein S1 (RpsA), product of SCO1998 (from UniProt Q9S2K5 1-502) |
| binds | B1 |
| binds | B2 |
